Three molecules from publication PMC11937301 can be followed below.

By UniProt entry, the sequences of proteins in these tests, tags left out.
UniProt P98170: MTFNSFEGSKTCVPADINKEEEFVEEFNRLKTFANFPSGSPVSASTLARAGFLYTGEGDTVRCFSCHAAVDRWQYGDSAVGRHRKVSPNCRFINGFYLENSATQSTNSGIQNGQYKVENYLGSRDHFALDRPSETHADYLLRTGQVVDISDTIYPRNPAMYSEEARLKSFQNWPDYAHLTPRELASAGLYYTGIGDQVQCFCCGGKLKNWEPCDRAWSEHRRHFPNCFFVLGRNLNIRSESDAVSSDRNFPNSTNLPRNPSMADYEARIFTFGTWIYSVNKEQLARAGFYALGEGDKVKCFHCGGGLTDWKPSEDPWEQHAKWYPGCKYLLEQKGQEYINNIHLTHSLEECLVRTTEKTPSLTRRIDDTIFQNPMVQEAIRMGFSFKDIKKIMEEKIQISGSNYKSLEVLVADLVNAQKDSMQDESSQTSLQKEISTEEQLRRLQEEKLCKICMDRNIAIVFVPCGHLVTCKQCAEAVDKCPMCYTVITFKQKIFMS
UniProt Q9UKA4: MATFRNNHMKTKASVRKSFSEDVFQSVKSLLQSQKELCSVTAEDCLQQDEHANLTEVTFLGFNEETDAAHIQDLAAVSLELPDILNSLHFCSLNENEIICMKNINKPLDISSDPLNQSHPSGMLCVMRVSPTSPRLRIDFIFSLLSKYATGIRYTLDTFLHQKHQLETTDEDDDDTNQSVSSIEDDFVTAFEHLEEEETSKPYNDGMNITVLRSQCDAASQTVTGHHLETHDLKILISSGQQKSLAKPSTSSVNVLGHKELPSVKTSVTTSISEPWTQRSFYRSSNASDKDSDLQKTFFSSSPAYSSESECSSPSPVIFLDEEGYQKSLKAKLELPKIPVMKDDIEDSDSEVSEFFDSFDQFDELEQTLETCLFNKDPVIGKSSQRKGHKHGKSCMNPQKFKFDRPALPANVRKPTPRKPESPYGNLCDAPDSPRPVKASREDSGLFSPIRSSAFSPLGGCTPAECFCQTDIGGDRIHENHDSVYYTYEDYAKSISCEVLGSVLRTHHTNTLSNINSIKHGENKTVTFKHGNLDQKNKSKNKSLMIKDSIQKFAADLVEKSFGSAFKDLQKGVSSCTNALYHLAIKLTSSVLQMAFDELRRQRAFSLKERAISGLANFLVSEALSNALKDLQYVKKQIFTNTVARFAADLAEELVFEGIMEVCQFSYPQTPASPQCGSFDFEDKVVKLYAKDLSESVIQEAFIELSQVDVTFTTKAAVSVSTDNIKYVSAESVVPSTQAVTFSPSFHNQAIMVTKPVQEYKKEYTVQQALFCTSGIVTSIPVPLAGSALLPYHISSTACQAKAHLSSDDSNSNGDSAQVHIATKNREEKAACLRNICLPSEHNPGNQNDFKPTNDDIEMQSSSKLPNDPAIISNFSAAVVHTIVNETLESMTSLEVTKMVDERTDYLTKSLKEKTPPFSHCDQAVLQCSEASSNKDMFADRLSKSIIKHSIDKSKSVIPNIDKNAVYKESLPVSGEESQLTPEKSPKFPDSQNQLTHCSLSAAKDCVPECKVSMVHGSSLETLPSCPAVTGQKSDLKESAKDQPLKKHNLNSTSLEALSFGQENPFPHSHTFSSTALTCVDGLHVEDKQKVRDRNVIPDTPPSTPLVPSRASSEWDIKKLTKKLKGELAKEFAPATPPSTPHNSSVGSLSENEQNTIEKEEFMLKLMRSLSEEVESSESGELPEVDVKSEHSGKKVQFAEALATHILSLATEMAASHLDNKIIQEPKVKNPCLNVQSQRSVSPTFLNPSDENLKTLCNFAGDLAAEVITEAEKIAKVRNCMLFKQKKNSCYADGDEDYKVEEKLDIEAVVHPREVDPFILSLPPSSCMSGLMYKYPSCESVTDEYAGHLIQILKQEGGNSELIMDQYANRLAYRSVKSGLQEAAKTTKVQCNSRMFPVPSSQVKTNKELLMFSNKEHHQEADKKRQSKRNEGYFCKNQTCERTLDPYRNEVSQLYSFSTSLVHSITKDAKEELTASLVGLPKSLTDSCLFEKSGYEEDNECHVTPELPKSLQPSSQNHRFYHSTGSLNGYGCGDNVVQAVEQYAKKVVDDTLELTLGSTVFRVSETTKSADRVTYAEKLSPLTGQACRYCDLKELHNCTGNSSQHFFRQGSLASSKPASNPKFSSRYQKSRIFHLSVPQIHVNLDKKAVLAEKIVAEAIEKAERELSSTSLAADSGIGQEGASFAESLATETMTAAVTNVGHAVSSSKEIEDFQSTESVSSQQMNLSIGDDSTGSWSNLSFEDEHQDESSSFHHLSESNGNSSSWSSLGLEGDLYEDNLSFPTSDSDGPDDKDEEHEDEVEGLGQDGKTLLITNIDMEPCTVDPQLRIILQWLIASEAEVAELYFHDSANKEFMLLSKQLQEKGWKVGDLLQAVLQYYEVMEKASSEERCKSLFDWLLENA
UniProt O94916: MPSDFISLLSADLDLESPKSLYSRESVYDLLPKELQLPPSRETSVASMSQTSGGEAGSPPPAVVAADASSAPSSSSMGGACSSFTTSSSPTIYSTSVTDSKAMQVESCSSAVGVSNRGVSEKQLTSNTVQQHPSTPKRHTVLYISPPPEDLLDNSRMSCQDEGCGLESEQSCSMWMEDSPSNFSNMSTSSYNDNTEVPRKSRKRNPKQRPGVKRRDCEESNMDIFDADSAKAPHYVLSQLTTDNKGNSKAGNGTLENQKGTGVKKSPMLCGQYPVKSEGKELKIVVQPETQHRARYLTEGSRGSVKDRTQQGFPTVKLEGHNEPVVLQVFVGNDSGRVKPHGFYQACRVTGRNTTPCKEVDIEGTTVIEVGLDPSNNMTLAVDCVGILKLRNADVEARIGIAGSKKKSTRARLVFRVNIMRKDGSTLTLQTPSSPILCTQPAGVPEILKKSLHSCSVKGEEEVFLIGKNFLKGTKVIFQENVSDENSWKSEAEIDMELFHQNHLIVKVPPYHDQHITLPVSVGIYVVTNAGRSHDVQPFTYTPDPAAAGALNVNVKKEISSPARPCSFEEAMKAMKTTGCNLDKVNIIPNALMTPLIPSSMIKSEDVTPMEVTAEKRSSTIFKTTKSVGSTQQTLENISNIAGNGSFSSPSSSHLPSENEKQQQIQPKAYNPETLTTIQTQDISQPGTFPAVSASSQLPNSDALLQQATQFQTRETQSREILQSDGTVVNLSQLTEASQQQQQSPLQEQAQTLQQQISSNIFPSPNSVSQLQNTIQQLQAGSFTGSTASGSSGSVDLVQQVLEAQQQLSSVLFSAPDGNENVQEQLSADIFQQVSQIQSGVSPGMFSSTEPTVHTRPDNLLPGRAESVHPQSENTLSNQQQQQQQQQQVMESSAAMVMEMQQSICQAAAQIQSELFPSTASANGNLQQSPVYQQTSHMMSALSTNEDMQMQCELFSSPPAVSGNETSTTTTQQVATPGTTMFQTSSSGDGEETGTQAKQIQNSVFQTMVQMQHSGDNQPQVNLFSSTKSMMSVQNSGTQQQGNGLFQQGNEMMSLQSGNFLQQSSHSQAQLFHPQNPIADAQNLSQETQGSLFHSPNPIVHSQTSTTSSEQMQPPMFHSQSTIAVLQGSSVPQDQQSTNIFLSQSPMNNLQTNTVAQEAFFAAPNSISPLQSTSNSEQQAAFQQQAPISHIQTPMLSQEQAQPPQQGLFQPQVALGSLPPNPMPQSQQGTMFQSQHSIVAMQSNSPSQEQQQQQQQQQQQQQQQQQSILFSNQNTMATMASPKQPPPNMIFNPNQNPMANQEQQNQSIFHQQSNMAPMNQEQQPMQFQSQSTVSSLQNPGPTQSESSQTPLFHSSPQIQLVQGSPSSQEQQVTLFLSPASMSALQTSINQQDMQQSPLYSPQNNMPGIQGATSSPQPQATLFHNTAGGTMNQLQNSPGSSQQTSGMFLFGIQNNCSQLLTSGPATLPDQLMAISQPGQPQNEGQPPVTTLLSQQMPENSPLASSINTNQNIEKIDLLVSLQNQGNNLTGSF

B1: LETMD1 (protein, UniProt Q6P1Q0 1-360)
chain: MALSRVCWARSAVWGSAVTPGHFVTRRLQLGRSGLAWGAPRSSKLHLSPKADVKNLMSYVVTKTKAINGKYHRFLGRHFPRFYVLYTIFMKGLQMLWADAKKARRIKTNMWKHNIKFHQLPYREMEHLRQFRQDVTKCLFLGIISIPPFANYLVFLLMYLFPRQLLIRHFWTPKQQTDFLDIYHAFRKQSHPEIISYLEKVIPLISDAGLRWRLTDLCTKIQRGTHPAIHDILALRECFSNHPLGMNQLQALHVKALSRAMLLTSYLPPPLLRHRLKTHTTVIHQLDKALAKLGIGQLTAQEVKSACYLRGLNSTHIGEDRCRTWLGEWLQISCSLKEAELSLLLHNVVLLSTNYLGTRR

No constants are given. Whether binding was seen depends on the method and setting. Binding seen in cells or lysates may run through a third protein. A yes stands for co-enrichment or nearness to the bait. Other partners may have been found.

For the assay, the target named is HA-XIAP (X-linked inhibitor of apoptosis protein) (human) (UniProt P98170). The assay can be described thus: affinity purification with mass spectrometry; ectopic overexpression of XIAP in UMUC3 cells, pull-down with anti-HA beads, IP-MS; hits intersected with iTRAQ data of XIAP knockdown.
Turning to AKAP11 (from UniProt Q9UKA4 1-1901), the binding result is “binds”.
Then NFAT5 (from UniProt O94916 1-1531), with “binds”.
B1: the binding result is “binds”.
